These are yes or no findings as the source states them, for the method shown. In cells and extracts the contact can be indirect. Some results given as binding are weak or reduced against the parent protein; the word gives no strength.
Biological target: RIC8 guanine nucleotide exchange factor A (RIC8A) (UniProt Q9NPQ8)
Experiment: co-IP; immunoprecipitation (IP) assay (figure 4A); also in circPDE4B knockdown and overexpression cells (figure 4D: binding decreased with knockdown, the opposite with overexpression)

Protein sequences, listed by entry. Tags and fused reporters are not part of them.
UniProt Q9NPQ8: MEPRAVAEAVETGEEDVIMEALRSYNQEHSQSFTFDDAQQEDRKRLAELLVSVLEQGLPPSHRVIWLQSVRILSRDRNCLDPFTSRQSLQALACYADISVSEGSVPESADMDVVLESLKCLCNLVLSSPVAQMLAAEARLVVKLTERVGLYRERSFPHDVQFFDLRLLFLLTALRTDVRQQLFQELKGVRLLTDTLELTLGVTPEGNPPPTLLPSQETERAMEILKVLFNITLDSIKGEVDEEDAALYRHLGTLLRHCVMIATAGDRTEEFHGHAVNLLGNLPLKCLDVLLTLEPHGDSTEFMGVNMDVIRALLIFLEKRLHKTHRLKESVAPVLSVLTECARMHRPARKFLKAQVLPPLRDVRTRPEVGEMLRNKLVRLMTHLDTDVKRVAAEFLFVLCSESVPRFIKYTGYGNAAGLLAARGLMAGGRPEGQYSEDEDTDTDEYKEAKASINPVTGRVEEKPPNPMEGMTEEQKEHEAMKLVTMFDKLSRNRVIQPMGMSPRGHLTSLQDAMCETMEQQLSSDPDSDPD

binding: binds
B1: midline 1 (MID1) (protein, UniProt O15344 1-667)
chain: METLESELTCPICLELFEDPLLLPCAHSLCFNCAHRILVSHCATNESVESITAFQCPTCRHVITLSQRGLDGLKRNVTLQNIIDRFQKASVSGPNSPSETRRERAFDANTMTSAEKVLCQFCDQDPAQDAVKTCVTCEVSYCDECLKATHPNKKPFTGHRLIEPIPDSHIRGLMCLEHEDEKVNMYCVTDDQLICALCKLVGRHRDHQVAALSERYDKLKQNLESNLTNLIKRNTELETLLAKLIQTCQHVEVNASRQEAKLTEECDLLIEIIQQRRQIIGTKIKEGKVMRLRKLAQQIANCKQCIERSASLISQAEHSLKENDHARFLQTAKNITERVSMATASSQVLIPEINLNDTFDTFALDFSREKKLLECLDYLTAPNPPTIREELCTASYDTITVHWTSDDEFSVVSYELQYTIFTGQANVVSLCNSADSWMIVPNIKQNHYTVHGLQSGTKYIFMVKAINQAGSRSSEPGKLKTNSQPFKLDPKSAHRKLKVSHDNLTVERDESSSKKSHTPERFTSQGSYGVAGNVFIDSGRHYWEVVISGSTWYAIGLAYKSAPKHEWIGKNSASWALCRCNNNWVVRHNSKEIPIEPAPHLRRVGILLDYDNGSIAFYDALNSIHLYTFDVAFAQPVCPTFTVWNKCLTIITGLPIPDHLDCTEQLP
